Measurements taken from PMC11274521 (Cells, 2024).
These are yes or no findings as the source states them, for the method shown. For part of these data: In cells and extracts the contact can be indirect.

Amino acid sequences for entries named in this document (tags omitted). Residues count along the entry.
UniProt P02769, residues 25-607: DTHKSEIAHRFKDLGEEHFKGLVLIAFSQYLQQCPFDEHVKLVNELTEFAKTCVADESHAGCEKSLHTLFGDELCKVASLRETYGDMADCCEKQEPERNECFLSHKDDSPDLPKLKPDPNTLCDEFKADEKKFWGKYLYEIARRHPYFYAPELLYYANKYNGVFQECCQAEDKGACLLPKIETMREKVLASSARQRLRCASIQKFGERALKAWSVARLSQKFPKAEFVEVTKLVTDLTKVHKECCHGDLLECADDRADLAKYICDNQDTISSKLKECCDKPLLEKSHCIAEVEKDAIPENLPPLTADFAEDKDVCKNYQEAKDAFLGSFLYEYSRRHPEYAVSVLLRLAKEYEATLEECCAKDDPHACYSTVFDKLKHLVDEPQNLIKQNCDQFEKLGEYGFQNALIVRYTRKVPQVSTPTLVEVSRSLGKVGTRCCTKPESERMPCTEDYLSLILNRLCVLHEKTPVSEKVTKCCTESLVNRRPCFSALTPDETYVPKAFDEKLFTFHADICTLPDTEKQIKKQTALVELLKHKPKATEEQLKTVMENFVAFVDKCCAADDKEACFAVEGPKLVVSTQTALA
UniProt P02768, residues 25-609: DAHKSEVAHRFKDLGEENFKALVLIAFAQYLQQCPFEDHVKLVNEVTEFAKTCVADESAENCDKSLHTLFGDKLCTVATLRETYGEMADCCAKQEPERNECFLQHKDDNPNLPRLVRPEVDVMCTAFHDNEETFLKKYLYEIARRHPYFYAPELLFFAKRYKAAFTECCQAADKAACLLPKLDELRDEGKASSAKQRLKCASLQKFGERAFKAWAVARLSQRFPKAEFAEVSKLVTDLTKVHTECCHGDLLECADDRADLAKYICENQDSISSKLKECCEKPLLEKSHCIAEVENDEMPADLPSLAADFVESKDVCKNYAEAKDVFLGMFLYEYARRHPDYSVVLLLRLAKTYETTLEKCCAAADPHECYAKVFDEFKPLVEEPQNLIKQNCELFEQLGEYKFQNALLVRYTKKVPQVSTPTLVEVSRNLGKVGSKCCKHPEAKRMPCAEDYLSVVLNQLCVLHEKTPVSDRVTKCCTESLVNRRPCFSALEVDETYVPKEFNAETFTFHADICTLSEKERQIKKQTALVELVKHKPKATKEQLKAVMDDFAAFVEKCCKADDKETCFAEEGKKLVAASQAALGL

Legend:
Biotin-L7N (human) [1] = target: T1, Biotin-L7N (human); assay: condition: 1 mM peptide, FBS equivalent to 0.03 mM albumin; pull-down; 1 mM biotinylated peptide with FBS (amount equivalent to 0.03 mM albumin) for 2 h at 4 °C, then Streptavidin resin for 1 h at room temperature; bound albumin detected by SDS-PAGE; only the target purified
T1 sequence (peptide, biotin-ahx at the N-terminus): REEKLFNVTSNLRINT

Biotin-L7N (human) [2] = target: T1, Biotin-L7N (human); assay: pull-down; 1 mM biotinylated peptide with 0.03 mM albumin (HSA or BSA) for 2 h at 4 °C, then Streptavidin resin for 1 h at room temperature; bound albumin detected by SDS-PAGE; both purified

Row | Substance | binding (Biotin-L7N (human) [1]) | binding (Biotin-L7N (human) [2])
1 | bovine serum albumin (from UniProt P02769 25-607) | no binding | no binding (tested: 1 mM peptide, 0.03 mM albumin)
2 | human serum albumin (from UniProt P02768 25-609) | – | no binding (tested: 1 mM peptide, 0.03 mM albumin)
